We go through 1 substance from publication PMC8316374.

Results are given in words; binding and its absence hold for the method and conditions named. Binding seen in cells or lysates may run through a third protein. Where a sequence is shown, tags or fusion partners need not be part of it.

The target in this experiment is T1, SNX19-GFP (human) (UniProt Q92543).
T1 sequence: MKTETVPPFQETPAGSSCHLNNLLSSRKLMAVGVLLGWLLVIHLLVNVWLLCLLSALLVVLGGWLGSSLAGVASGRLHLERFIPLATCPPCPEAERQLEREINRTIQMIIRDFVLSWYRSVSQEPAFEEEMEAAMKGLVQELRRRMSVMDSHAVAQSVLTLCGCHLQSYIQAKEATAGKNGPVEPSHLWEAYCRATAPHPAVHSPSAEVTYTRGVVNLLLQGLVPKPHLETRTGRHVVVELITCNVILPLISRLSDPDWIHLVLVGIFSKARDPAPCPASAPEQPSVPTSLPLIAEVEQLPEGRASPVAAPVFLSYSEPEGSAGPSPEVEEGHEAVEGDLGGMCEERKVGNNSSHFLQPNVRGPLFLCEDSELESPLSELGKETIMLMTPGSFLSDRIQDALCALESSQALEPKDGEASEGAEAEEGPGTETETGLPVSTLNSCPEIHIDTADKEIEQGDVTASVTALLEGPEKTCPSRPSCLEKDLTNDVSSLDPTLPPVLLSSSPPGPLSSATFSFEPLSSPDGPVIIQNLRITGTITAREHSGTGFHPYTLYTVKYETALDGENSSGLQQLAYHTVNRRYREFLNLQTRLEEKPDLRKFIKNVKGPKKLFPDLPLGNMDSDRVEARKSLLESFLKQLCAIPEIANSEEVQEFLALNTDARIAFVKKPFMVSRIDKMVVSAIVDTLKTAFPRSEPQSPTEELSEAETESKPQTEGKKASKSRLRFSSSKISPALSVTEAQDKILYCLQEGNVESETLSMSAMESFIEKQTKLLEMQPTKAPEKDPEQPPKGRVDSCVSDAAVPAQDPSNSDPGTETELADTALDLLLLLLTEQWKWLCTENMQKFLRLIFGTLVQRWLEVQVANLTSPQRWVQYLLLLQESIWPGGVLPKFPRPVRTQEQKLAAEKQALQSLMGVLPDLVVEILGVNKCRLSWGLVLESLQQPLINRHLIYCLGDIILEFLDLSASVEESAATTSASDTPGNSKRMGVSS
In words: co-IP; GFP-Trap magnetic beads on lysates of HEK293T cells transfected with SNX19-GFP; endogenous kinesin chains looked for by immunoblot.

“kinesin-3 (human (endogenous in HEK293T))”: the binding entry is “no binding”.
